Assay results: the supplement of paper PMC12823440, “Inhibitors supercharge kinase turnover through native proteolytic circuits” (Nature, 2025)
The list shows a part of the results. The calls rarely recur for the same compound in another form.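 Kinases were expressed as nanoluciferase fusions in K562 cells and luminescence was read every 4 h between 2 and 18 h as percent of control, DMSO set to 100% and a positive control to 0%. A time point counts as decreased when the signal drops significantly (2 sigma). The hit call is the authors' own, does not follow from the count of time points alone, and its rule is not shown.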

Amino acid sequences for entries named in this document (tags omitted). A change or cut given only in a name is not applied to a line headed by its entry.
UniProt P29597: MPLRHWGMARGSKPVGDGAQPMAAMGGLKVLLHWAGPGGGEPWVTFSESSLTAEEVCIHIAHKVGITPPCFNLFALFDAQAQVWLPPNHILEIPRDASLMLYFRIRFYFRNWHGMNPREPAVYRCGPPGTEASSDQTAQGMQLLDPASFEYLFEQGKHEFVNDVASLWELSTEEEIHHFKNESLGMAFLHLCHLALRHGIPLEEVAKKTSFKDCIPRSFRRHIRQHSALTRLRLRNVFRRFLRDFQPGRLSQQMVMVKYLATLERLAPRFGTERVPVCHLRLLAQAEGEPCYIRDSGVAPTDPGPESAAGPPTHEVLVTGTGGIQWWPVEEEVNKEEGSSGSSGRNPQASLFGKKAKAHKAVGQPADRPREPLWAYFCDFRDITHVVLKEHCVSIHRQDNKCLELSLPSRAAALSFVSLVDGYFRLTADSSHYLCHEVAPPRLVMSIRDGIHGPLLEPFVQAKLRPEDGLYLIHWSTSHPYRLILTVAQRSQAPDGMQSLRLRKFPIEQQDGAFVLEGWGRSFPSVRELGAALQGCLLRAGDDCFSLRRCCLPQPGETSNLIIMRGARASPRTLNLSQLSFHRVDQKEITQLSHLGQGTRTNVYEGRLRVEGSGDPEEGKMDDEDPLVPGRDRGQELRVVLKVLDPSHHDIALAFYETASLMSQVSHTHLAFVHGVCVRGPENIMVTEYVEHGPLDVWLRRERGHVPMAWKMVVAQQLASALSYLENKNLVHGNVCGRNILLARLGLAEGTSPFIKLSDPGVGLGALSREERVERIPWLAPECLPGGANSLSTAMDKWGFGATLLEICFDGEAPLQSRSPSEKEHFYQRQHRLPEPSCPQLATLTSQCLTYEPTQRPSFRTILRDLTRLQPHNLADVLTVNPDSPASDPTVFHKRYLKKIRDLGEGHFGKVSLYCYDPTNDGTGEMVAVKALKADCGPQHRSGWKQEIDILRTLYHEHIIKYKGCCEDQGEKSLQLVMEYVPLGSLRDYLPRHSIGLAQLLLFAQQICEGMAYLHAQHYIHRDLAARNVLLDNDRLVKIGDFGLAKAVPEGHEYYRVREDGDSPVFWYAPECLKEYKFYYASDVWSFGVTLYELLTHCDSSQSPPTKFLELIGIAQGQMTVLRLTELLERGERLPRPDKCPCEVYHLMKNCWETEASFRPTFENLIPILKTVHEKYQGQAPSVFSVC

target: TYK2 (UniProt P29597); assay: kinase-Nluc reporter destabilization hit call (1 = scored as downregulated) (binary); higher = compound decreases kinase abundance; conditions: K562; 2-18 h

kinase-Nluc reporter destabilization hit call, inactive:
O=C(Nc1ccc(F)cc1F)C(NC(=S)Nc1cc(C(F)(F)F)cc(C(F)(F)F)c1)c1ccccc1 (racemic) (2.5 µM) 0
COc1cc2nc(NC3CC3)nc(NC3CCN(C(C)C)CC3)c2cc1OC (10 µM) 0
C=CC(=O)Nc1cc(Nc2nccc(-c3cn(C)c4ccccc34)n2)c(OCC(F)(F)F)nc1N(C)CCNC [AST5902  (trimesylate)] (2.5 µM) 0
CN(C)c1cc[n+](Cc2ccc(OCCOc3ccc(C[n+]4ccc(N(C)C)cc4)cc3)cc2)cc1 (10 µM) 0
COc1cc(N2CCC(O)CC2)ccc1Nc1nc(Nc2ccccc2S(=O)(=O)C(C)C)c2[nH]cnc2n1 (10 µM) 0
Cc1cccc(-c2nn3c(c2-c2ccnc4ccc(C(N)=O)cc24)CCC3)n1 [Galunisertib] (10 µM) 0
C[C@@H]1COC(Nc2ccc3ncnc(Nc4ccc(OCc5nccs5)c(Cl)c4)c3c2)=N1 [Varlitinib] (10 µM) 0
CS(=O)(=O)c1ccc([C@@H](CC2CCCC2)C(=O)Nc2nccs2)cc1 (10 µM) 0
S=C(NCc1ccc2c(c1)OCO2)N1CCN(c2ncnc3c2oc2ccccc23)CC1 [Amuvatinib] (2.5 µM) 0
CCC(F)(F)c1cc(N2CCC(S(C)(=O)=O)CC2)nc2sc(C(N)=O)c(N)c12 (10 µM) 0
O=c1cc(N2CCOCC2)oc2c(-c3cccc4c3sc3ccccc34)cccc12 (10 µM) 0
N#Cc1cnc(Nc2cc(NC[C@H]3CNCCO3)c(C(F)(F)F)cn2)cn1 (10 µM) 0
Nc1ccc(C(=O)Nc2cccc(-c3nc(N4CCOCC4)c4oc5ncccc5c4n3)c2)cn1 (10 µM) 0
COc1cc(N2CCC(N3CCN(C)CC3)CC2)ccc1Nc1ncnc(Nc2ccccc2S(=O)(=O)C(C)C)n1 (10 µM) 0
CO[C@@H]1[C@H](N(C)C(=O)c2ccccc2)C[C@H]2O[C@]1(C)n1c3ccccc3c3c4c(c5c6ccccc6n2c5c31)C(=O)NC4 [Midostaurin] (2.5 µM) 0

A draw from above in order of molar mass, descending.
kinase-Nluc reporter destabilization hit call, inactive:
COc1cc(N2CCC(N3CCN(C)CC3)CC2)ccc1Nc1ncnc(Nc2ccccc2S(=O)(=O)C(C)C)n1 (10 µM) 0
COc1cc2nc(NC3CC3)nc(NC3CCN(C(C)C)CC3)c2cc1OC (10 µM) 0
N#Cc1cnc(Nc2cc(NC[C@H]3CNCCO3)c(C(F)(F)F)cn2)cn1 (10 µM) 0
